Values of other authors in patent US20060246153A1, “Herbal compositions for the teatment and prevention of prostate disorders” (priority 2003, published 2006).
For at least one compound, name, drawing or mass did not settle the structure.

System: independent androgenic prostate cancer cells
Conditions: in vitro

For `COc1cc(C2Oc3cc([C@H]4Oc5cc(O)cc(O)c5C(=O)[C@@H]4O)ccc3OC2CO)ccc1O` (some centres unmarked) [silibinin], the cell cycle effect is given as “arresting the cell cycle in G1” and the “proliferation of independent androgenic prostate cancer cells” value is given as “inhibit”.
